Results from the supplement of paper PMC4604168 (melanoma cell lines).
Some of the results follow. Single values are uncertain, as repeats are few or missing.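 Imaging used 1,536-well plates; nuclei positive for cleaved PARP by antibody were divided by total DNA-stained nuclei to yield the apoptosis fraction. Doses for screening kept most cells viable, and cell lines differ markedly in resting and induced cleaved-PARP levels.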

Columns and labels:
Test in all cases: cleaved PARP positive nuclei fraction relative to DMSO control; melanoma cells; higher = more apoptosis
Details in all cases: library dose: low library concentration; 72 h
[1] = test system: MZ2-MEL
[2] = test system: MeWo
[3] = test system: RPMI7951
[4] = test system: RVH-421
[5] = test system: SkMel28
[6] = test system: SkMel2
[7] = test system: SkMel30
[8] = test system: SkMel5
[9] = test system: UACC257
[10] = test system: UACC62
[11] = test system: WM115
[12] = test system: WM1716
[13] = test system: WM1745
[14] = test system: WM3526
[15] = test system: WM3619
[16] = test system: WM451Lu

SMILES | cleaved PARP positive nuclei fraction [1] | cleaved PARP positive nuclei fraction [2] | cleaved PARP positive nuclei fraction [3] | cleaved PARP positive nuclei fraction [4] | cleaved PARP positive nuclei fraction [5] | cleaved PARP positive nuclei fraction [6] | cleaved PARP positive nuclei fraction [7] | cleaved PARP positive nuclei fraction [8] | cleaved PARP positive nuclei fraction [9] | cleaved PARP positive nuclei fraction [10] | cleaved PARP positive nuclei fraction [11] | cleaved PARP positive nuclei fraction [12] | cleaved PARP positive nuclei fraction [13] | cleaved PARP positive nuclei fraction [14] | cleaved PARP positive nuclei fraction [15] | cleaved PARP positive nuclei fraction [16]
O=C(O)c1ccc2c(c1)nc(Nc1cccc(Cl)c1)c1ccncc12 + COc1cc2ncnc(Nc3ccc(Oc4ccccc4)cc3)c2cc1OC [SrcI1] (first compound 0.4 µM, partner dose 2 µM) | 70.7% | 75.5% | 89.4% | 54.7% | 117% | 108% | 29.8% | 70.3% | 138% | 129% | 44% | 96.3% | 97.3% | 90.3% | 92.6% | 42.8%
C=C(c1ccc(C(=O)O)cc1)c1cc2c(cc1C)C(C)(C)CCC2(C)C [Bexarotene] + COc1ccc(COc2ccc(Cc3cnc(N)nc3N)cc2OC)cc1 [GW2580] (first compound 2 µM, partner dose 1 µM) | 131% | 72.4% | 98.9% | 71.3% | 221% | 46.9% | 110% | 174% | 141% | 55.8% | 73% | 669% | 94.7% | 155% | 107% | 12.3%
O=C(O)[C@@H]1[O][Sb](=[O])([O][Sb]2(=[O])[O][C@H]([C@H](O)CO)[C@H](O)[C@H](C(=O)O)[O]2)[O][C@H]([C@H](O)CO)[C@@H]1O (stereo partly drawn) [stibogluconate] + CC(C)(C)c1cnc(CSc2cnc(NC(=O)C3CCNCC3)s2)o1 [SNS-032] (first compound 2 µM, partner dose 0.01 µM) | 81.8% | 20% | 99.3% | 302% | 66.8% | 63.9% | 60.9% | 57.5% | 74.4% | 48.4% | 154% | 117% | 92.5% | 81.5% | 90.1% | 58.5%
CS(=O)(=O)CCNCc1ccc(-c2ccc3ncnc(Nc4ccc(OCc5cccc(F)c5)c(Cl)c4)c3c2)o1 [lapatinib] + COc1cc(N2CCC(N3CCN(C)CC3)CC2)ccc1Nc1ncc(Cl)c(Nc2ccccc2S(=O)(=O)C(C)C)n1 [NVP-TAE684] (first compound 0.8 µM, partner dose 0.08 µM) | 162% | 79.8% | 39.8% | 137% | 141% | 31.8% | 77.4% | 89.6% | 345% | 118% | 68.5% | 29.8% | 111% | 100% | 99.9% | 93.8%
CN1CCN(c2ccc3nc(-c4c(N)c5c(F)cccc5[nH]c4=O)[nH]c3c2)CC1 [Dovitinib] + Cn1cncc1[C@@](N)(c1ccc(Cl)cc1)c1ccc2c(c1)c(-c1cccc(Cl)c1)cc(=O)n2C [tipifarnib] (first compound 0.1 µM, partner dose 0.01 µM) | 70.5% | 234% | 154% | 73.7% | 42.7% | 73.4% | 85.5% | 33.2% | 199% | 138% | 220% | 76.1% | 111% | 86.9% | 87.5% | 91.5%
O=C(O)c1ccc2c(c1)nc(Nc1cccc(Cl)c1)c1ccncc12 + OCCn1cc(-c2cnc3nnn(Cc4ccc5ncccc5c4)c3n2)cn1 [PF04217903] (first compound 0.4 µM, partner dose 1 µM) | 119% | 82.8% | 60.9% | 99% | 147% | 159% | 141% | 42.9% | 110% | 126% | 140% | 226% | 102% | 81.9% | 83.6% | 62.5%
CN1CCN(c2ccc3nc(-c4c(N)c5c(F)cccc5[nH]c4=O)[nH]c3c2)CC1 [Dovitinib] + CCc1ccc(CCOc2ccc(CC3SC(=O)NC3=O)cc2)nc1 [pioglitazone] (first compound 0.1 µM, partner dose 2 µM) | 194% | 251% | 59.6% | 99.3% | 89% | 20.4% | 114% | 88.2% | 215% | 112% | 14.2% | 181% | 108% | 81.4% | 69.8% | 145%
CC(C)C[C@H](NC(=O)[C@H](Cc1ccccc1)NC(=O)c1cnccn1)B(O)O [Bortezomib] + COc1cc(Nc2ncc(F)c(Nc3ccc4c(n3)NC(=O)C(C)(C)O4)n2)cc(OC)c1OC [Tamatinib] (first compound 0.001 µM, partner dose 0.4 µM) | 237% | 58.3% | 97.2% | 60.2% | 120% | 90.2% | 62.4% | 77% | 126% | 100% | 124% | 106% | 276% | 60.7% | 968% | 29.7%
C=C(c1ccc(C(=O)O)cc1)c1cc2c(cc1C)C(C)(C)CCC2(C)C [Bexarotene] + COc1cc(N2CCC(N3CCN(C)CC3)CC2)ccc1Nc1ncc(Cl)c(Nc2ccccc2S(=O)(=O)C(C)C)n1 [NVP-TAE684] (first compound 2 µM, partner dose 0.08 µM) | 143% | 43.4% | 77.5% | 84.7% | 196% | 77.5% | 88.2% | 37.4% | 168% | 201% | 48.9% | 103% | 86.6% | 86% | 119% | 37%
O=C(O)[C@@H]1[O][Sb](=[O])([O][Sb]2(=[O])[O][C@H]([C@H](O)CO)[C@H](O)[C@H](C(=O)O)[O]2)[O][C@H]([C@H](O)CO)[C@@H]1O (stereo partly drawn) [stibogluconate] + O=C(O)C(=O)Nc1sc2c(c1C(=O)O)CCNC2 [TCS401] (first compound 2 µM, partner dose 1.66667 µM) | 146% | 129% | 161% | 64.3% | 79.1% | 178% | 84.5% | 97.6% | 28.4% | 124% | 140% | 172% | 112% | 70.7% | 94.4% | 60.7%
O=C(O)c1ccc2c(c1)nc(Nc1cccc(Cl)c1)c1ccncc12 + N#Cc1c(O)c2c(-c3ccc(-c4ccccc4O)cc3)csc2[nH]c1=O [A769662] (first compound 0.4 µM, partner dose 2 µM) | 194% | 43.2% | 138% | 62.2% | 49.6% | 126% | 132% | 74.9% | 104% | 69.4% | 40.9% | 355% | 97.2% | 94.5% | 81.6% | 37.3%
CN1CCN(c2ccc3nc(-c4c(N)c5c(F)cccc5[nH]c4=O)[nH]c3c2)CC1 [Dovitinib] + Cc1cc(N2CCOCC2)cc2[nH]c(-c3c(NC[C@@H](O)c4cccc(Cl)c4)cc[nH]c3=O)nc12 [BMS536924] (first compound 0.1 µM, partner dose 0.2 µM) | 211% | 129% | 87.5% | 47.6% | 27.5% | 74.5% | 696% | 159% | 119% | 331% | 210% | 155% | 128% | 83.8% | 132% | 112%
Cn1c(=O)n(-c2ccc(C(C)(C)C#N)cc2)c2c3cc(-c4cnc5ccccc5c4)ccc3ncc21 + Cc1cc(N2CCOCC2)cc2[nH]c(-c3c(NC[C@@H](O)c4cccc(Cl)c4)cc[nH]c3=O)nc12 [BMS536924] (first compound 0.004 µM, partner dose 0.2 µM) | 97.7% | 53.5% | 71.6% | 89% | 73.6% | 82% | 94.7% | 487% | 94.7% | 181% | 91.1% | 79.7% | 112% | 121% | 97.3% | 154%
CN1CCN(c2ccc3nc(-c4c(N)c5c(F)cccc5[nH]c4=O)[nH]c3c2)CC1 [Dovitinib] + O=C(Nc1cccc(Cl)c1)Nc1ncc(CCNc2ncnc3ccsc23)s1 [SNS314] (first compound 0.1 µM, partner dose 0.0008 µM) | 244% | 103% | 57.3% | 134% | 110% | 128% | 384% | 89.2% | 127% | 75.9% | 196% | 54.9% | 107% | 59.1% | 116% | 217%
Nc1ncn([C@H]2C[C@H](O)[C@@H](CO)O2)c(=O)n1 [decitabine] + NC(=O)Nc1cc(-c2cccc(F)c2)sc1C(=O)N[C@H]1CCCNC1 [AZD7762] (first compound 0.1 µM, partner dose 0.02 µM) | 41.8% | 139% | 78.7% | 28.3% | 59.6% | 48.5% | 132% | 60.5% | 97.4% | 32.6% | 308% | 121% | 101% | 63.5% | 157% | 201%
Cn1c(=O)n(-c2ccc(C(C)(C)C#N)cc2)c2c3cc(-c4cnc5ccccc5c4)ccc3ncc21 + COc1cc2ncnc(Nc3ccc(Oc4ccccc4)cc3)c2cc1OC [SrcI1] (first compound 0.004 µM, partner dose 2 µM) | 83% | 137% | 59.5% | 82.5% | 228% | 28.9% | 128% | 65% | 118% | 450% | 239% | 72.7% | 92.7% | 92.2% | 124% | 47.7%
O=C(O)[C@@H]1[O][Sb](=[O])([O][Sb]2(=[O])[O][C@H]([C@H](O)CO)[C@H](O)[C@H](C(=O)O)[O]2)[O][C@H]([C@H](O)CO)[C@@H]1O (stereo partly drawn) [stibogluconate] + CN(NC(=O)CC(=O)NN(C)C(=S)c1ccccc1)C(=S)c1ccccc1 [STA4783] (first compound 2 µM, partner dose 0.006 µM) | 116% | 128% | 71.6% | 36.4% | 132% | 89.3% | 130% | 84% | 44.2% | 199% | 77.8% | 211% | 98.6% | 60.5% | 169% | 21.5%
C=C(c1ccc(C(=O)O)cc1)c1cc2c(cc1C)C(C)(C)CCC2(C)C [Bexarotene] + Cc1cc(N2CCOCC2)cc2[nH]c(-c3c(NC[C@@H](O)c4cccc(Cl)c4)cc[nH]c3=O)nc12 [BMS536924] (first compound 2 µM, partner dose 0.2 µM) | 178% | 57% | 163% | 145% | 219% | 52.9% | 67.2% | 40.8% | 81% | 75.9% | 119% | 70.8% | 793% | 67.3% | 95.8% | 62%

Full records, quoted from the list. Order of values: cleaved PARP positive nuclei fraction [1] | cleaved PARP positive nuclei fraction [2] | cleaved PARP positive nuclei fraction [3] | cleaved PARP positive nuclei fraction [4] | cleaved PARP positive nuclei fraction [5] | cleaved PARP positive nuclei fraction [6] | cleaved PARP positive nuclei fraction [7] | cleaved PARP positive nuclei fraction [8] | cleaved PARP positive nuclei fraction [9] | cleaved PARP positive nuclei fraction [10] | cleaved PARP positive nuclei fraction [11] | cleaved PARP positive nuclei fraction [12] | cleaved PARP positive nuclei fraction [13] | cleaved PARP positive nuclei fraction [14] | cleaved PARP positive nuclei fraction [15] | cleaved PARP positive nuclei fraction [16]
CN1CCN(c2ccc3nc(-c4c(N)c5c(F)cccc5[nH]c4=O)[nH]c3c2)CC1 [Dovitinib] + Cn1cncc1[C@@](N)(c1ccc(Cl)cc1)c1ccc2c(c1)c(-c1cccc(Cl)c1)cc(=O)n2C [tipifarnib] (first compound 0.1 µM, partner dose 0.01 µM) is listed with 70.5% | 234% | 154% | 73.7% | 42.7% | 73.4% | 85.5% | 33.2% | 199% | 138% | 220% | 76.1% | 111% | 86.9% | 87.5% | 91.5%
O=C(O)c1ccc2c(c1)nc(Nc1cccc(Cl)c1)c1ccncc12 + COc1cc2ncnc(Nc3ccc(Oc4ccccc4)cc3)c2cc1OC [SrcI1] (first compound 0.4 µM, partner dose 2 µM) is listed with 70.7% | 75.5% | 89.4% | 54.7% | 117% | 108% | 29.8% | 70.3% | 138% | 129% | 44% | 96.3% | 97.3% | 90.3% | 92.6% | 42.8%
